From publication PMC6268524
No constants are given. Whether binding was seen depends on the method and setting. In cells and extracts the contact can be indirect. These calls come from enrichment with a bait or labelling near it, and not all partners need be listed.

Sequences of proteins named here, by UniProt entry; tags and fusion partners are left off. Residues count along the entry.
UniProt Q9UNE7: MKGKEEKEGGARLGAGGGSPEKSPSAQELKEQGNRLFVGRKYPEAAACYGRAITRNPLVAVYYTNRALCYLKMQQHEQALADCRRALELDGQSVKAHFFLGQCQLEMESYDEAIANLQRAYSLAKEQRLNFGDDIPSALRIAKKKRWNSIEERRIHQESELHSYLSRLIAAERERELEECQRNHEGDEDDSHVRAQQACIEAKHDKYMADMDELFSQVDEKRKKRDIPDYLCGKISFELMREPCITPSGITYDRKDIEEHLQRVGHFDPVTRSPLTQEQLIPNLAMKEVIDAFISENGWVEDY
UniProt Q9BUF5: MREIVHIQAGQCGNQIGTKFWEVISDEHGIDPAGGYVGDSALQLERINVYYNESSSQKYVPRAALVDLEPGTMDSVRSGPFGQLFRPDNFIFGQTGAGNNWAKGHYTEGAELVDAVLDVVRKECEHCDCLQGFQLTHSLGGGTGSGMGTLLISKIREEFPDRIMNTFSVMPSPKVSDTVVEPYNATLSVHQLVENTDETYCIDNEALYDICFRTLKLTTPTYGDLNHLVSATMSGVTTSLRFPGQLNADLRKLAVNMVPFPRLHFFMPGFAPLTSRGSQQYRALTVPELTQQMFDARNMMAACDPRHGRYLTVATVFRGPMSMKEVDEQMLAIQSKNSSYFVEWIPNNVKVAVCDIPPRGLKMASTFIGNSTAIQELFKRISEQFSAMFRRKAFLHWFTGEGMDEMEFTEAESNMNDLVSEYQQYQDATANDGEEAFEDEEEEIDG
UniProt Q9NYU2, residues 43-1555: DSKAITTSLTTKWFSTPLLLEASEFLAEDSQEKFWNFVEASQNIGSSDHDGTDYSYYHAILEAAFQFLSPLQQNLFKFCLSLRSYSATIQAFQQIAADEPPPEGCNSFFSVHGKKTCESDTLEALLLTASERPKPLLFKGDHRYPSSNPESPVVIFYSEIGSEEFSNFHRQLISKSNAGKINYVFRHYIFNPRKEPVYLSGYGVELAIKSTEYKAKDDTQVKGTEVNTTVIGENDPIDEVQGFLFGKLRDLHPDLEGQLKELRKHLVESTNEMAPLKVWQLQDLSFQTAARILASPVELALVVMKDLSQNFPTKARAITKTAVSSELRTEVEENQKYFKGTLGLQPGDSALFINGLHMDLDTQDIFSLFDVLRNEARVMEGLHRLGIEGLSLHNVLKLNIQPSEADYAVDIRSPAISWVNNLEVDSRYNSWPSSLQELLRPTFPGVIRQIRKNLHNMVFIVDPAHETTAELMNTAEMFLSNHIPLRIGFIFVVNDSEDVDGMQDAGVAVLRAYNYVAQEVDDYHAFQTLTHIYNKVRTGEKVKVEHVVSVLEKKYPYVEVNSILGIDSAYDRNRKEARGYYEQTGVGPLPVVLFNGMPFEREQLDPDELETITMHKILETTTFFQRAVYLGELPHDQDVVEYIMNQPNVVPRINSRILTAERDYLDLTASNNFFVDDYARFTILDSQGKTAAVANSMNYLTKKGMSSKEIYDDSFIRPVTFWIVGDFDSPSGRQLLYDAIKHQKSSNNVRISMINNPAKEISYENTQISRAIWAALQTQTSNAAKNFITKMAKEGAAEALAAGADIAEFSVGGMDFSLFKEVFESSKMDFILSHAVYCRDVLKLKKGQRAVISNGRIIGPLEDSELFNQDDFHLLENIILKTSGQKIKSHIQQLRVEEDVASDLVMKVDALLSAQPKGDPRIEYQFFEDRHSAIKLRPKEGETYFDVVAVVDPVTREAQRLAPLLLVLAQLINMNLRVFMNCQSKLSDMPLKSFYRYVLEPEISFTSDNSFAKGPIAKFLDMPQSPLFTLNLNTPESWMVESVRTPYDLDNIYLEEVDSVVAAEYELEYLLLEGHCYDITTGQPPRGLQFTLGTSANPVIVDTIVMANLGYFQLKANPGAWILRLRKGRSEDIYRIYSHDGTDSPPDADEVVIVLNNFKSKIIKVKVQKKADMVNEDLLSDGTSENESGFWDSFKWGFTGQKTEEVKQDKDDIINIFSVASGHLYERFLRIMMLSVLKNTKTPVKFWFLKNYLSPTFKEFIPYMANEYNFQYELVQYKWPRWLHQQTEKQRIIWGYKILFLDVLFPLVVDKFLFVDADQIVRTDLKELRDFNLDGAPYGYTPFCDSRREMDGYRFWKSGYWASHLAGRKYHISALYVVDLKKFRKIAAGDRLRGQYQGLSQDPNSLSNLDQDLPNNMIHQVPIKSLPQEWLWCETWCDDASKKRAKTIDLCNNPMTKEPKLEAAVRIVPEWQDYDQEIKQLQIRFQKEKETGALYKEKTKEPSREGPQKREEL
UniProt Q8IXI2: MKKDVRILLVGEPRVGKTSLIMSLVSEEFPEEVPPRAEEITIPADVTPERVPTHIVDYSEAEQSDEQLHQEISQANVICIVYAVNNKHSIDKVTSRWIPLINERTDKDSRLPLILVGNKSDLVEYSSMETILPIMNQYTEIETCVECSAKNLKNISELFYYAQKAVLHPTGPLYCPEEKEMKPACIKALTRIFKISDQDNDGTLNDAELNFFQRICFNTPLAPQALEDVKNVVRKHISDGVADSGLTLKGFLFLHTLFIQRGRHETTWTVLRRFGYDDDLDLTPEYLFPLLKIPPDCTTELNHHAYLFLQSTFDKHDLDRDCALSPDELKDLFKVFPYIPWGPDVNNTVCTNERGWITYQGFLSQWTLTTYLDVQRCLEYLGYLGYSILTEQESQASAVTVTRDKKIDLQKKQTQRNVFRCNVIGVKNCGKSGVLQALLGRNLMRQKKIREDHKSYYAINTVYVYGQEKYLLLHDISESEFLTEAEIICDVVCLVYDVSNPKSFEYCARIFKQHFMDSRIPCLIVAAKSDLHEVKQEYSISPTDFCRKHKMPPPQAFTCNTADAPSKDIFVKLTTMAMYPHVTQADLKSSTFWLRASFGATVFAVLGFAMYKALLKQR
UniProt P04792: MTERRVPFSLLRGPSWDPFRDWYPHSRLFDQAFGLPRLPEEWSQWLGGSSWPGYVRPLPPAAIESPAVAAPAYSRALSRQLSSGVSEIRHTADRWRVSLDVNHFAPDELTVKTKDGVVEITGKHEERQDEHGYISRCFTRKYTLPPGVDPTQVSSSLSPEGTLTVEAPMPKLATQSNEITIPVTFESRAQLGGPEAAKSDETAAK

Molecular target: FLAG-tagged wild-type PCSK9 (proprotein convertase subtilisin/kexin type 9) (human) (UniProt Q8NBP7)
Test: affinity purification with mass spectrometry; anti-FLAG immunoprecipitation of FLAG-tagged wild-type PCSK9 from extracts of a stable T-Rex-293 line, elution with 3xFLAG peptide, limited electrophoresis, LC-MS/MS; empty-vector line as negative control; three experiments

| Molecule | binding |
| --- | --- |
| STIP1 homology and U-box containing protein 1 (from UniProt Q9UNE7 1-303) | binds |
| solute carrier family 25 member 1 (from UniProt P53007 14-311) | binds |
| CDP-diacylglycerol-inositol 3-phosphatidyltransferase (protein, UniProt O14735 1-213) MPDENIFLFVPNLIGYARIVFAIISFYFMPCCPLTASSFYLLSGLLDAFDGHAARALNQGTRFGAMLDMLTDRCSTMCLLVNLALLYPGATLFFQISMSLDVASHWLHLHSSVVRGSESHKMIDLSGNPVLRIYYTSRPALFTLCAGNELFYCLLYLFHFSEGPLVGSVGLFRMGLWVTAPIALLKSLISVIHLITAARNMAALDAADRAKKK | binds |
| solute carrier family 25. member 10 (protein, UniProt Q9UBX3 1-287) MAAEARVSRWYFGGLASCGAACCTHPLDLLKVHLQTQQEVKLRMTGMALRVVRTDGILALYSGLSASLCRQMTYSLTRFAIYETVRDRVAKGSQGPLPFHEKVLLGSVSGLAGGFVGTPADLVNVRMQNDVKLPQGQRRNYAHALDGLYRVAREEGLRRLFSGATMASSRGALVTVGQLSCYDQAKQLVLSTGYLSDNIFTHFVASFIAGGCATFLCQPLDVLKTRLMNSKGEYQGVFHCAVETAKLGPLAFYKGLVPAGIRLIPHTVLTFVFLEQLRKNFGIKVPS | binds |
| Calmegin (protein, UniProt O14967 20-610) EFMDDDVETEDFEENSEEIDVNESELSSEIKYKTPQPIGEVYFAETFDSGRLAGWVLSKAKKDDMDEEISIYDGRWEIEELKENQVPGDRGLVLKSRAKHHAISAVLAKPFIFADKPLIVQYEVNFQDGIDCGGAYIKLLADTDDLILENFYDKTSYIIMFGPDKCGEDYKLHFIFRHKHPKTGVFEEKHAKPPDVDLKKFFTDRKTHLYTLVMNPDDTFEVLVDQTVVNKGSLLEDVVPPIKPPKEIEDPNDKKPEEWDERAKIPDPSAVKPEDWDESEPAQIEDSSVVKPAGWLDDEPKFIPDPNAEKPDDWNEDTDGEWEAPQILNPACRIGCGEWKPPMIDNPKYKGVWRPPLVDNPNYQGIWSPRKIPNPDYFEDDHPFLLTSFSALGLELWSMTSDIYFDNFIICSEKEVADHWAADGWRWKIMIANANKPGVLKQLMAAAEGHPWLWLIYLVTAGVPIALITSFCWPRKVKKKHKDTEYKKTDICIPQTKGVLEQEEKEEKAALEKPMDLEEEKKQNDGEMLEKEEESEPEEKSEEEIEIIEGQEESNQSNKSGSEDEMKEADESTGSGDGPIKSVRKRRVRKD | binds |
| protein disulfide isomerase family A, member 4 (protein, UniProt P13667 21-645) VAGAEGPDEDSSNRENAIEDEEEEEEEDDDEEEDDLEVKEENGVLVLNDANFDNFVADKDTVLLEFYAPWCGHCKQFAPEYEKIANILKDKDPPIPVAKIDATSASVLASRFDVSGYPTIKILKKGQAVDYEGSRTQEEIVAKVREVSQPDWTPPPEVTLVLTKENFDEVVNDADIILVEFYAPWCGHCKKLAPEYEKAAKELSKRSPPIPLAKVDATAETDLAKRFDVSGYPTLKIFRKGRPYDYNGPREKYGIVDYMIEQSGPPSKEILTLKQVQEFLKDGDDVIIIGVFKGESDPAYQQYQDAANNLREDYKFHHTFSTEIAKFLKVSQGQLVVMQPEKFQSKYEPRSHMMDVQGSTQDSAIKDFVLKYALPLVGHRKVSNDAKRYTRRPLVVVYYSVDFSFDYRAATQFWRSKVLEVAKDFPEYTFAIADEEDYAGEVKDLGLSESGEDVNAAILDESGKKFAMEPEEFDSDTLREFVTAFKKGKLKPVIKSQPVPKNNKGPVKVVVGKTFDSIVMDPKKDVLIEFYAPWCGHCKQLEPVYNSLAKKYKGQKGLVIAKMDATANDVPSDRYKVEGFPTIYFAPSGDKKNPVKFEGGDRDLEHLSKFIEEHATKLSRTKEEL | binds |

Results, then the molecule that gave them:

| binding | Molecule |
| --- | --- |
| binds | tubulin, beta 6 (from UniProt Q9BUF5 1-446) |
| binds | UDP-glucose glycoprotein glucosyltransferase 1 (from UniProt Q9NYU2 43-1555) |
| binds | ras homolog gene family, member T1 (from UniProt Q8IXI2 1-618) |
| binds | heat shock 27kDa protein 1 (from UniProt P04792 1-205) |
| binds | Acylglycerol kinase lipid kinase (protein, UniProt Q53H12 1-422) MTVFFKTLRNHWKKTTAGLCLLTWGGHWLYGKHCDNLLRRAACQEAQVFGNQLIPPNAQVKKATVFLNPAACKGKARTLFEKNAAPILHLSGMDVTIVKTDYEGQAKKLLELMENTDVIIVAGGDGTLQEVVTGVLRRTDEATFSKIPIGFIPLGETSSLSHTLFAESGNKVQHITDATLAIVKGETVPLDVLQIKGEKEQPVFAMTGLRWGSFRDAGVKVSKYWYLGPLKIKAAHFFSTLKEWPQTHQASISYTGPTERPPNEPEETPVQRPSLYRRILRRLASYWAQPQDALSQEVSPEVWKDVQLSTIELSITTRNNQLDPTSKEDFLNICIEPDTISKGDFITIGSRKVRNPKLHVEGTECLQASQCTLLIPEGAGGSFSIDSEEYEAMPVEVKLLPRKLQFFCDPRKREQMLTSPTQ |
| binds | reticulocalbin 1 (protein, UniProt Q15293 30-331) KPTVRKERVVRPDSELGERPPEDNQSFQYDHEAFLGKEDSKTFDQLTPDESKERLGKIVDRIDNDGDGFVTTEELKTWIKRVQKRYIFDNVAKVWKDYDRDKDDKISWEEYKQATYGYYLGNPAEFHDSSDHHTFKKMLPRDERRFKAADLNGDLTATREEFTAFLHPEEFEHMKEIVVLETLEDIDKNGDGFVDQDEYIADMFSHEENGPEPDWVLSEREQFNEFRDLNKDGKLDKDEIRHWILPQDYDHAQAEARHLVYESDKNKDEKLTKEEILENWNMFVGSQATNYGEDLTKNHDEL |
